# Assay results: PubChem BioAssay AID2685 (National Center for Advancing Translational Sciences (NCATS), 2010)
# The list shows a part of the results. Further columns of the screen follow, without active or inactive calls. Compounds called inactive in the main read-out are mostly missing here. The note in brackets gives the kind of curve behind each potency; many fits are weak.
# Assay: qHTS Assay for Lipid Storage Modulators in Drosophila S3 Cells;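 as to cell number change: cells counted by Cell Tracker Red CMTPX staining in the red channel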
# Conditions: BODIPY lipid droplet fluorescence, 18-24 h; for cell number change: measured here: cell count max response, cells fed with added oleic acid; for AC50: measured here: lipid fluorescence (Fed channel) AC50, cells fed with added oleic acid
# In short: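 Drosophila S3 cells loaded with oleic acid (400 uM, as added) and compounds at several concentrations; lipid droplets imaged by 488-nm laser-scanning cytometry, 500–530 nm intensity and object ratio to cell channel. Percent activity normalized to 20 uM Triacsin C.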
Compound,cell number change [%],AC50
CCc1nnc(NS(=O)(=O)c2ccc(N/C=C(\C=O)c3nc4cc(Cl)ccc4o3)cc2)s1,-5.96,"29.1 µM [rising, single point]"
O=C(O)c1cc(NC(=O)c2ccc(Br)cc2)cc(NC(=O)c2ccc(Br)cc2)c1,-1.59,"6.51 µM [rising, single point]"
